In all, about 220,000 compounds went through this assay and about 2,400 (1.1%) were called active. Inconclusive means that the source gave no clear call. Such entries were picked first, then a sample of the others. Calls follow the shape of the dose curve; as a rule, active = well fitted inhibition curve with a large enough effect; inconclusive = small, poorly fitted or top-dose-only effect, or effect the other way; inactive = no such curve, though single readings can be large or run the other way. Potencies of inconclusive entries are doubtful fits and often do not repeat.
experiment: qHTS Multiplex Assay to Identify Dual Action Probes in a Cell Model of Huntington: Aggregate Formation (GFP); settings: PC12 HttQ103-GFP aggregates, Acumen cytometry, 40 h; activity change, negative = inhibition: at 46.1 µM (top of the series) unless noted; also: nearly all actives have a fitted effect of over 60% in size
Outline: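 Using laser scanning cytometry, GFP-positive aggregates were counted after lysis of PC12 cells induced with 100 nM tebufenozide to express HTT exon 1 Q103–GFP. Compounds were tested in titration.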
% is scaled to controls: 0 for no effect and ±100 for the full control effect; potency is read from the fitted curve at half-maximal effect.

| SMILES | Potency | activity change, negative = inhibition |
| --- | --- | --- |
| CCCCNC(=S)NCc1ccc2[nH]c3c(c2c1)CCCC3 | inactive | – |
| CCc1cc(=O)oc2cc(OC(C)=O)cc(OC(C)=O)c12 | inconclusive: 35.5 µM [inhibitor, single point] | – |
| O=C(Nc1ccc2c(c1)CCC2)c1cnccn1 | inconclusive: 0.398 µM [activator, full curve] | – |
| CC(C)=C(NC(=O)c1ccccc1)C(=O)Nc1ccc(C(=O)O)cc1 | – | inactive: -17.4% [at 9.22 µM] |
| CCCn1c(Nc2nc3ccccc3n2C)nc2ccccc21 | inconclusive: 31.6 µM [inhibitor, single point] | – |
| FC(F)(F)c1ccccc1/C=N/N1CCN(Cc2ccccc2)CC1 | inconclusive: 25.1 µM [inhibitor, single point] | – |
| Cc1ccc(C(=O)CSc2nc3ccccc3c(=O)n2-c2ccccc2)s1 | inconclusive: 0.0316 µM [inhibitor, full curve, poor fit] | – |
| CC1CCN(CC(O)COC2CCC(C(C)(C)C)CC2)CC1 (stereo not given) | inactive | – |
| CCOC(=O)/C(=N\Nc1ccc(Br)cc1)N1CC(C)OC(C)C1 (stereo not given) | – | inactive: -1.62% [at 9.22 µM] |
| C=C(C)CN(CC)c1nc(N)c2c(N)nc3c(c2c1C#N)CC(=O)N3C12CC3CC(CC(C3)C1)C2 | inconclusive: 6.31 µM [inhibitor, partial curve] | – |
| Cc1cccc(N2C(S)=C(C#N)C(=O)NC2c2cccs2)c1 (stereo not given) | inactive | – |
| CC(C)CC(=O)Nc1nnc(SCC(=O)Nc2ccc(F)cc2)s1 | inactive | – |
| CCOC(=O)C1=C(C)NC(=S)NC1c1ccc(-c2ccc(Cl)cc2)o1 (stereo not given) | inconclusive: 35.5 µM [inhibitor, single point] | – |
| CCCCOc1ccc(C(=O)N/C(=C\c2cccc([N+](=O)[O-])c2)C(=O)OCCC)cc1 | inactive | – |
| CCOC(=O)CN1C(=O)S/C(=C/C=C/c2ccc(N(C)C)cc2)C1=O | inconclusive: 6.31 µM [inhibitor, partial curve] | – |
| O=C1/C(=C/c2ccc(O)c(O)c2)SC(=S)N1Nc1ccccc1 | inconclusive: 25.1 µM [inhibitor, single point] | – |
| CCCSc1nc(C)c(-c2csc(C(C#N)=C3CCCC3)n2)cc1C#N | inconclusive: 35.5 µM [inhibitor, single point] | – |
| COc1ccc(N/C=C2/Sc3ccccc3NC2=O)cc1 | inconclusive: 3.16 µM [activator, single point] | – |
| COc1cnc(-c2ccccn2)nc1Sc1ccc(C)cc1 | inconclusive: 35.5 µM [inhibitor, single point] | – |
| Cc1cccc(NC(=O)C2C(c3ccccc3)C2(Cl)Cl)c1C (stereo not given) | inconclusive: 8.91 µM [inhibitor, partial curve] | – |
| Nc1nc(SCc2ccc(Cl)cc2Cl)nc2nc3c(cc12)CCCC3 | inactive | – |
| Cc1cc(/C=N/Nc2ccc([N+](=O)[O-])cn2)c(C)n1-c1ccccc1 | inconclusive: 0.562 µM [inhibitor, partial curve, poor fit] | – |
| COc1ccccc1N1CCN(C(=O)c2oc3cc(C)cc(C)c3c2C)CC1 | inconclusive: 14.1 µM [inhibitor, partial curve] | – |
| CC(C)(C)n1nc(-c2ccc(F)cc2)c2c(N)ncnc21 | inconclusive: 35.5 µM [inhibitor, single point] | – |

| SMILES | Potency | activity change, negative = inhibition |
| --- | --- | --- |
| COc1ccc(/C=C/C(=O)OCC(=O)Nc2ccc(S(N)(=O)=O)cc2)cc1OC | inactive | – |
| CCN(CC)C(=O)Oc1ccc2c(=O)c(-c3ccc(OC)cc3)c(C)oc2c1 | inactive | – |
| CCn1c(SCC(=O)c2c(N)n(C)c(=O)n(C)c2=O)nnc1-c1ccccc1 | inactive | – |
| Cc1c(Cl)cn2c(=O)cc(CN(C)Cc3nc4ccccc4c(=O)[nH]3)nc2c1Cl | inactive | – |
| Cc1[nH]n(-c2ccccc2)c(=O)c1/C=N/NC(=O)C(C)C | inconclusive: 22.4 µM [inhibitor, single point] | – |
| COc1cc2c(cc1OC)C(NC(=O)C(F)(F)F)CNC2=O (stereo not given) | inconclusive: 7.08 µM [inhibitor, partial curve] | – |
| CC(=O)/C(=N/Nc1ccccc1[N+](=O)[O-])N1CCCc2ccccc21 | active: 11.2 µM | – |
| COc1cc(CN(C)Cc2cc(=O)n3ccsc3n2)ccc1OC(F)F | inconclusive: 12.6 µM [inhibitor, single point] | – |
| COc1ccc(C2C(C(C)=O)=C(C)N=c3s/c(=C\c4cc(C)n(C)c4C)c(=O)n32)c(OC)c1 (stereo not given) | inconclusive: 35.5 µM [inhibitor, single point] | – |
| Cc1cc(/C=C2/SC(=O)N(CC(=O)N3CCOCC3)C2=O)c(C)n1-c1ccccc1F | inconclusive: 10 µM [activator, partial curve] | – |
| C=CCn1c(=O)[nH]c2cc(C(=O)N3CCN(c4ccc(C(C)=O)cc4)CC3)ccc2c1=O | inconclusive: 35.5 µM [inhibitor, single point] | – |
| CCCCN(C(=O)CCC(=O)Nc1cc(C)on1)C(C(=O)NC(C)(C)C)c1cccc(OC)c1OC (stereo not given) | inconclusive: 1.26 µM [inhibitor, full curve, poor fit] | – |
| CCCC(=O)c1c[nH]c(C(=O)NCCCN2CCOCC2)c1 | inconclusive: 5.62 µM [activator, single point] | – |
| O=C(c1cc(-c2ccccc2)on1)N1CCc2ccccc2C1 | inconclusive: 5.62 µM [activator, single point] | – |
| Cc1cccc(CSc2nc(N)c(C#N)c(-c3cccs3)c2C#N)c1 | inconclusive: 35.5 µM [inhibitor, single point] | – |
| c1ccc(COc2ccc(Nc3ncnc4nc[nH]c34)cc2)cc1 | inconclusive: 35.5 µM [inhibitor, single point] | – |
| CCC(C)(C)n1nnnc1C(c1ccc(O)c(OC)c1)N1CCN(c2nc3ccccc3s2)CC1 (stereo not given) | inconclusive: 20 µM [inhibitor, single point] | – |
| CCOc1ccccc1CN1CCN(S(=O)(=O)CC)CC1 | inactive | – |
| CSc1nnc(C)c(/C=C/NOCc2cccc(F)c2)n1 | inconclusive: 3.55 µM [activator, partial curve] | – |
| Cc1cccc(C)c1-n1nnnc1C1(Nc2ccccc2)CCCCC1 | inconclusive: 35.5 µM [inhibitor, single point] | – |
| CCC(CC)C(=O)Nc1nc(-c2ccc3c(c2)CCN3C(=O)C2CC2)c(C)s1 | inconclusive: 35.5 µM [inhibitor, single point] | – |
| Cc1nc2scc(-c3ccc(C(C)C)cc3)c2c(=O)n1N | inconclusive: 35.5 µM [inhibitor, single point] | – |
| Cc1ccc(C)c(NC(=S)NNC(=O)c2csc(C(C)C)c2)c1 | inactive | – |
| Cn1c2c(c(=O)n(C)c1=O)C(NS(=O)(=O)c1ccccc1)(C(F)(F)F)C(=O)N2 (stereo not given) | inactive | – |

Among those listed so far, eight contain an aryl thioether with sulfur outside any ring:

| SMILES | Potency | activity change, negative = inhibition |
| --- | --- | --- |
| Cc1ccc(C(=O)CSc2nc3ccccc3c(=O)n2-c2ccccc2)s1 | inconclusive: 0.0316 µM [inhibitor, full curve, poor fit] | – |
| CC(C)CC(=O)Nc1nnc(SCC(=O)Nc2ccc(F)cc2)s1 | inactive | – |
| CCCSc1nc(C)c(-c2csc(C(C#N)=C3CCCC3)n2)cc1C#N | inconclusive: 35.5 µM [inhibitor, single point] | – |
| COc1cnc(-c2ccccn2)nc1Sc1ccc(C)cc1 | inconclusive: 35.5 µM [inhibitor, single point] | – |
| Nc1nc(SCc2ccc(Cl)cc2Cl)nc2nc3c(cc12)CCCC3 | inactive | – |
| CCn1c(SCC(=O)c2c(N)n(C)c(=O)n(C)c2=O)nnc1-c1ccccc1 | inactive | – |
| Cc1cccc(CSc2nc(N)c(C#N)c(-c3cccs3)c2C#N)c1 | inconclusive: 35.5 µM [inhibitor, single point] | – |
| CSc1nnc(C)c(/C=C/NOCc2cccc(F)c2)n1 | inconclusive: 3.55 µM [activator, partial curve] | – |

Two of these compounds, reformatted.
SMILES	Potency	activity change, negative = inhibition
COc1ccc(/C=C/C(=O)OCC(=O)Nc2ccc(S(N)(=O)=O)cc2)cc1OC	inactive	–
CCN(CC)C(=O)Oc1ccc2c(=O)c(-c3ccc(OC)cc3)c(C)oc2c1	inactive	–

Remaining list, next part

| SMILES | Potency | activity change, negative = inhibition |
| --- | --- | --- |
| Cc1ccc(S(=O)(=O)N2CCCCC2)cc1NC(=O)COC(=O)Cc1cccc(C(F)(F)F)c1 | inactive | – |
| S=C(c1ccc2c(c1)OCO2)N1CCCCC1 | inactive | – |
| COc1ccc(C(C(O)C(=O)c2c[nH]c3ccccc23)N2CCN(c3ccccc3)CC2)cc1 (stereo not given) | inconclusive: 20 µM [inhibitor, partial curve] | – |
| S=c1[nH]nc(-c2ccccn2)n1/N=C/c1cccs1 | inactive | – |
| O=C1C2CC=CCC2C(=O)N1c1ccc(NCCc2ccccc2)c([N+](=O)[O-])c1 (stereo not given) | inconclusive: 3.98 µM [inhibitor, single point] | – |
| O=C(c1ccc(Cl)cc1)c1coc2ccc(O)cc12 | active: 0.631 µM | – |
| O=C(c1ccc(Cl)cc1)c1cc([N+](=O)[O-])ccc1N1CCOCC1 | inconclusive: 0.708 µM [inhibitor, partial curve] | – |
| CCOC(=O)c1cnc(-c2ccccc2)nc1-c1ccccc1 | inactive | – |
| CC1(C)Cc2ccccc2C(NN=C2CCCC2)=N1 | – | inactive: 3.31% [at 9.22 µM] |
| O=C(Nc1sc2c(c1C(=O)O)CCCCC2)c1ccccc1 | – | inactive: 9.51% [at 9.22 µM] |
| CCOC(=O)C1=C(C)Nc2ncnn2C1c1cccnc1 (stereo not given) | inactive | – |
| Cc1cccc(N2CCN(C(=O)COc3ccc4c(c3)CCC4)CC2)c1C | inconclusive: 0.562 µM [inhibitor, partial curve, poor fit] | – |
| S=C(NC1CCCCC1)N1CCN(Cc2ccccc2Cl)CC1 | inconclusive: 35.5 µM [inhibitor, single point] | – |
| C=CCn1c(SCc2c(C)noc2C)nc2ccccc2c1=O | inconclusive: 35.5 µM [activator, single point] | – |
| O=C1CC(c2ccccc2)CC(O)=C1C=Nc1ccccc1 (stereo not given) | inconclusive: 25.1 µM [inhibitor, single point] | – |
| Cc1c(C(=O)OC2CCCC2C)[nH]c2c1C(=O)CCC2 (stereo not given) | inconclusive: 5.62 µM [inhibitor, single point] | – |
| COc1ccc(-n2ncc(S(=O)(=O)c3ccccc3)c2-c2ccc(Cl)cc2)cc1 | inconclusive: 35.5 µM [inhibitor, single point] | – |
| CCOC(=O)C(C(=O)OCC)C1N=C(N)N=C2Oc3ccccc3N21 (stereo not given) | active: 3.16 µM | – |
| C=CCn1c(CNc2ccc(C)cc2)nnc1SCC(=O)N/N=C/c1ccc(O)cc1O | inconclusive: 11.2 µM [inhibitor, partial curve] | – |
| O=C(CSc1nnc(CNC(=O)C23CC4CC(CC(C4)C2)C3)n1-c1ccc(F)cc1)Nc1ccc(F)cc1 | inconclusive: 1.12 µM [inhibitor, single point] | – |
| Cc1nc2c(C(=O)NCc3cccs3)cnn2c(C)c1Cc1ccccc1 | inconclusive: 14.1 µM [activator, single point] | – |
| O=c1c2c(ncn1CCO)nc1n2CCC1 | inactive | – |
